Measured values reported in publication PMC5446404.

The chains behind the UniProt entries cited, without tags or fusion partners. Where a name states a change or a piece, a line headed by the entry shows the natural chain unless it says otherwise.
UniProt O75460: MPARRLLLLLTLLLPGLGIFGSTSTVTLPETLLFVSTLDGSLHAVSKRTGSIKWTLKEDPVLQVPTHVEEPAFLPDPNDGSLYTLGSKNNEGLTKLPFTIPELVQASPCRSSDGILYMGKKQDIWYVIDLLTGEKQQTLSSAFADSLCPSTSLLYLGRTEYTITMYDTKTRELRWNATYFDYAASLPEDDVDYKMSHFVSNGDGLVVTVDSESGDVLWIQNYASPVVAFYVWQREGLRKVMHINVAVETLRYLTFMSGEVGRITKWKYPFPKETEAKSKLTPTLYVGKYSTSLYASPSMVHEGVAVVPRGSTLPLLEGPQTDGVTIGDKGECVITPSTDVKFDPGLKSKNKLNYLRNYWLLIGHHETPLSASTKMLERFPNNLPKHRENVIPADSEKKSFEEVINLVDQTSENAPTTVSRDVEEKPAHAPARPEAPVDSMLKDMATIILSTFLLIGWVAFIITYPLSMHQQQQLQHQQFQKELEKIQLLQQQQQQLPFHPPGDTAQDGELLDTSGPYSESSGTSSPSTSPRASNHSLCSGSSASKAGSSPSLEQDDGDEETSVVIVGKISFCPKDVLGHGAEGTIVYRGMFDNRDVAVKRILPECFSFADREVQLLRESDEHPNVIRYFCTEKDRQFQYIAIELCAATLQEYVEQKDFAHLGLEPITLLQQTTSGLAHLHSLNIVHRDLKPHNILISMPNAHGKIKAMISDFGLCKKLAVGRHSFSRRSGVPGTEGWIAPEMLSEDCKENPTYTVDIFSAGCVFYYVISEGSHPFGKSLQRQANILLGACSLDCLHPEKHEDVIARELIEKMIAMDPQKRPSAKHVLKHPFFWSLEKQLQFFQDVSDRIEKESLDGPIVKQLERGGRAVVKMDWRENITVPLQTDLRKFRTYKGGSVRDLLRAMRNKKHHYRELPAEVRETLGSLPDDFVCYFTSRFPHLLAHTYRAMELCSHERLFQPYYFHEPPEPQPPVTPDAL

Target: T1, recombinant human fortilin (Strep-tag II), biotinylated (human) (UniProt P13693)
T1 sequence (chain, biotinylated (sites not stated)): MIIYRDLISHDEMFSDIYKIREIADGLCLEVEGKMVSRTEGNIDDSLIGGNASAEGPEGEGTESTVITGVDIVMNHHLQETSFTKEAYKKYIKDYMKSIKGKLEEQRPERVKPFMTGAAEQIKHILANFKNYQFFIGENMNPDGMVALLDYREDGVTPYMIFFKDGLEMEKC
Assay: BLI; BLItz (ForteBio); biotinylated fortilin immobilised on streptavidin-coated biosensors (25 μg/mL, 600 s), buffer exchange in PBS; analyte at various concentrations for 180 s, dissociation in PBS for 300 s; three independent experiments; both purified

- binding: no binding
Substance: GST-IRE1α-L (aa 1-70) (from UniProt O75460) (domain or fragment)

No constants are given. Whether binding was seen depends on the method and setting. Where a sequence is shown, tags or fusion partners need not be part of it.
